{"source": "PubChem BioAssay AID280", "about": "(DTP/NCI, 2004)", "system": "nude mice, LOX melanoma ip, survival T/C", "experiment": "NCI In Vivo Anticancer Drug Screen. Data for tumor model Human Amelanotic Melanoma (LOX) (intraperitoneal) in NU/NU BALB/C (nude) mice", "settings": "T/C endpoint: median survival time, higher T/C = longer survival", "description": "The antitumor activity of compounds was measured in mice bearing transplantable tumors. Survival or tumor size were measured and the results are expressed as the measurement made in the treated group (T) divided by the measurement made in the vehicle treated control group (C). The tumor model used in this assay is Human Amelanotic Melanoma (LOX) (intraperitoneal) in NU/NU BALB/C (nude) mice", "key": {"[1]": {"settings": "dose: 1200.0 mg/kg/injection, schedule: Q04DX003 (ip), vehicle: Klucel (hydroxypropylcellulose) (HPC)"}}, "note": "The list shows only some results of the screen, not a fair sample: it is rich in T/C values a quarter to a half above the control, in often repeated tests (any T/C) and in doses without a T/C. Other doses and runs of a compound stand elsewhere. T/C is the treated group as % of the vehicle group. Some entries give survivors of the animals treated and no T/C: the source holds a T/C of zero for them, seemingly a mark for toxic or unscored doses. Some doses without a T/C left all or most animals alive at the check, yet need not have been tolerated: the source hardly ever lists a survival T/C far under the control, and the zero likely stands for such cases as well. Survivors were counted at the toxicity check, usually on the fifth day, unless a day is given; later deaths do not show. Schedules are NCI's codes, read here as Q, the interval in days (D) or hours (H), X, the number of doses. Some doses were run more than once; their values stand side by side, smallest first. Where survival is the endpoint, the PubChem record calls one and a half times the control and up active, and a quarter to a half above the control has no call in these data; cut-offs in other NCI protocols can differ. Some T/C values are followed by the survivors on the day toxicity was checked, most often the fifth; without a count, all were alive then.", "data": [{"molecule": "CCOC1NC(=O)Oc2ccccc21", "note": "(stereo unspecified)", "values": [{"measurement": "T/C", "setting": "dose: 75.0 mg/kg/injection, schedule: Q04DX003 (ip), vehicle: Klucel (hydroxypropylcellulose) (HPC)", "result": "132 % of control [5 of 6 alive on day 10]"}, {"measurement": "T/C", "setting": "dose: 150.0 mg/kg/injection, schedule: Q04DX003 (ip), vehicle: Klucel (hydroxypropylcellulose) (HPC)", "result": "127 % of control"}, {"measurement": "T/C", "setting": "dose: 300.0 mg/kg/injection, schedule: Q04DX003 (ip), vehicle: Klucel (hydroxypropylcellulose) (HPC)", "result": "132 % of control [5 of 6 alive on day 10]"}, {"measurement": "T/C", "setting": "dose: 600.0 mg/kg/injection, schedule: Q04DX003 (ip), vehicle: Klucel (hydroxypropylcellulose) (HPC)", "result": "125 % of control [5 of 6 alive on day 10]"}, {"measurement": "survivor count", "setting": "[1]", "result": "0 of 6 on day 10"}]}, {"molecule": "O=C1CC2(C(=O)N1CN1CCOCC1)c1ccccc1-c1ccccc12", "values": [{"measurement": "survivor count", "setting": "[1]", "result": "2 of 6 on day 10"}]}, {"molecule": "CC(=O)O[C@H]1C(=O)[C@@]2(C)[C@H]([C@H](OC(=O)c3ccccc3)[C@]3(O)C[C@H](OC(=O)[C@H](O)[C@@H](NC(=O)c4ccccc4)c4ccccc4)C(C)=C1C3(C)C)[C@]1(OC(C)=O)CO[C@@H]1C[C@@H]2O", "values": [{"measurement": "T/C", "setting": "dose: 1.88 mg/kg/injection, schedule: Q01DX009 (ip), vehicle: Klucel (hydroxypropylcellulose) (HPC)", "result": "147 % of control"}, {"measurement": "T/C", "setting": "dose: 7.5 mg/kg/injection, schedule: Q01DX009 (ip), vehicle: Klucel (hydroxypropylcellulose) (HPC)", "result": "142 % of control"}, {"measurement": "survivor count", "setting": "dose: 30.0 mg/kg/injection, schedule: Q01DX009 (ip), vehicle: Klucel (hydroxypropylcellulose) (HPC)", "result": "6 of 9 on day 10 and 10 of 10 on day 14"}]}, {"molecule": "NC(=O)c1[nH]cnc1O", "values": [{"measurement": "survivor count", "setting": "dose: 400.0 mg/kg/injection, schedule: Q04DX003 (ip), vehicle: saline with Tween-80", "result": "5 of 6 on day 10"}, {"measurement": "survivor count", "setting": "dose: 800.0 mg/kg/injection, schedule: Q04DX003 (ip), vehicle: saline with Tween-80", "result": "1 of 6 on day 10"}]}]}
